Data taken from PMC10822852, “Structural and biochemical insights into the mechanism of the Gabija bacterial immunity system” (Nature Communications, 2024).
Results are given in words; binding and its absence hold for the method and conditions named. Some results given as binding are weak or reduced against the parent protein; the word gives no strength.

Assays:
[1] = molecular target: T1, GajA (Bacillus cereus VD045) (UniProt J8H9C1); experiment: cryo-EM structure; Gabija complex (GajA with GajB, co-expressed and co-purified), 0.5 mg/ml in 100 mM NaCl, single particle analysis with D2 symmetry, 3.6 Å; both purified
T1 sequence: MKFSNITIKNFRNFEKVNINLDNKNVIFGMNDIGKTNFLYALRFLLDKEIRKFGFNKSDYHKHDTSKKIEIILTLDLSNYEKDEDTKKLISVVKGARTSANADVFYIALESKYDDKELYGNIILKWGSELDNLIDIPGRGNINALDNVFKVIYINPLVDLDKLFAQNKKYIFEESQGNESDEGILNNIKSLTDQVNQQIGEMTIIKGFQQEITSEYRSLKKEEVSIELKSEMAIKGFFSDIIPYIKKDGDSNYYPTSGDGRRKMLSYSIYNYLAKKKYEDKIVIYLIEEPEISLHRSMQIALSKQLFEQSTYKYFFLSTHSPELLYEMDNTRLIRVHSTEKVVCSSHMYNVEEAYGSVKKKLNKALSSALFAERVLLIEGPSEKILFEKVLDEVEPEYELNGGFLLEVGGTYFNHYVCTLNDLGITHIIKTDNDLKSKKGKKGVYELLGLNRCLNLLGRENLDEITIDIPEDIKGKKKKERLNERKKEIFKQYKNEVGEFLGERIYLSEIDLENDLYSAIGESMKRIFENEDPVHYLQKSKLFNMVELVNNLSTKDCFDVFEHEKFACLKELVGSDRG

[2] = molecular target: T1, GajA (Bacillus cereus VD045); experiment: SEC-MALS; Superdex 200 10/300 Increase, samples injected at 1 mg/ml in Buffer B (10 mM Tris-HCl pH 7.5, 300 mM NaCl, 2 mM DTT), 0.5 ml/min; GajA, GajB and the co-purified Gabija complex; both purified
[3] = molecular target: T1, GajA (Bacillus cereus VD045); experiment: SEC; size exclusion chromatography of GajA with the NTR or the CTR construct of GajB (Supplementary Fig. 5a, b); conditions not given

B1: GajB (enzyme, UniProt J8HQ06 1-494)
chain: MSREQIIKDGGNILVTAGAGSGKTTILVSKIEADLKENKTHYSIAAVTFTNKAAKEIEGRLGYSSRGNFIGTNDGFVESEIIRPFIKDAFGNDYPDNFTAEYFDNQFASYDKGLQVLKYQNILGTYSNPKKNFKFQLALDILKKSLVARQYIFSKYFKIFIDEYQDSDKDMHNLFMYLKDQLKIKLFIVGDPKQSIYIWRGAEPENFNGLIENSTDFNKYHLTSNFRCCQDIQNYSNLFNEETRSLIKEKNEVQNVISIADDMPISDILLKLTEEKQVLNIEAELVILVRRRNQAIEIMKELNEEGFNFIFIPQTPLDRATPNATLLKEVIKYVKNDRYSIYDLAAEIVGNLSSREIKEIQKIINELLVPNINQVLINQVLINLFAKLEITLDTREITAFTEVMMTNEFDIAFDTNEYLHKIFTVHSAKGLEFNQVIITASDYNVHYNRDTNEHYVATTRAKDKLIVIMDNKKYSDYIETLMKELKIKNIIKSI
In the case of B1, the binding [1] is reported as “binds” and the binding [2] is reported as “binds”.

B2: NTR region of GajB (N-terminal region, residues 1-223) (domain or fragment, UniProt J8HQ06 1-223)
chain: MSREQIIKDGGNILVTAGAGSGKTTILVSKIEADLKENKTHYSIAAVTFTNKAAKEIEGRLGYSSRGNFIGTNDGFVESEIIRPFIKDAFGNDYPDNFTAEYFDNQFASYDKGLQVLKYQNILGTYSNPKKNFKFQLALDILKKSLVARQYIFSKYFKIFIDEYQDSDKDMHNLFMYLKDQLKIKLFIVGDPKQSIYIWRGAEPENFNGLIENSTDFNKYHLT
B2 was tested, and the binding [3] was “binds”.
